This is one part of the list. Hit calls seldom repeat between salt and free forms of one compound.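 Kinases were expressed as nanoluciferase fusions in K562 cells and luminescence was read every 4 h between 2 and 18 h as percent of control, DMSO set to 100% and a positive control to 0%. A time point counts as decreased when the signal drops significantly (2 sigma). The hit call is the authors' own, does not follow from the count of time points alone, and its rule is not shown.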
Experiments:
Assay in all cases: number of time points (of 5) at which kinase-Nluc abundance scored as decreased, DMSO-normalised (count); higher = more persistent destabilization
Settings in all cases: K562; 2-18 h
[1] = target: FLT3 (UniProt P36888)
[2] = target: FYN (UniProt P06241)
[3] = target: GSK3A (UniProt P49840)
[4] = target: HER2 (UniProt P04626)
[5] = target: INSRR (UniProt P14616)
[6] = target: IRAK3 (UniProt Q9Y616)
[7] = target: JAK1 (UniProt P23458)
[8] = target: LCK (UniProt P06239)
[9] = target: LIMK1 (UniProt P53667)
[10] = target: LIMK2 (UniProt P53671)

Amino acid sequences for entries named in this document (tags omitted). A change or cut given only in a name is not applied to a line headed by its entry.
UniProt P36888, whole entry: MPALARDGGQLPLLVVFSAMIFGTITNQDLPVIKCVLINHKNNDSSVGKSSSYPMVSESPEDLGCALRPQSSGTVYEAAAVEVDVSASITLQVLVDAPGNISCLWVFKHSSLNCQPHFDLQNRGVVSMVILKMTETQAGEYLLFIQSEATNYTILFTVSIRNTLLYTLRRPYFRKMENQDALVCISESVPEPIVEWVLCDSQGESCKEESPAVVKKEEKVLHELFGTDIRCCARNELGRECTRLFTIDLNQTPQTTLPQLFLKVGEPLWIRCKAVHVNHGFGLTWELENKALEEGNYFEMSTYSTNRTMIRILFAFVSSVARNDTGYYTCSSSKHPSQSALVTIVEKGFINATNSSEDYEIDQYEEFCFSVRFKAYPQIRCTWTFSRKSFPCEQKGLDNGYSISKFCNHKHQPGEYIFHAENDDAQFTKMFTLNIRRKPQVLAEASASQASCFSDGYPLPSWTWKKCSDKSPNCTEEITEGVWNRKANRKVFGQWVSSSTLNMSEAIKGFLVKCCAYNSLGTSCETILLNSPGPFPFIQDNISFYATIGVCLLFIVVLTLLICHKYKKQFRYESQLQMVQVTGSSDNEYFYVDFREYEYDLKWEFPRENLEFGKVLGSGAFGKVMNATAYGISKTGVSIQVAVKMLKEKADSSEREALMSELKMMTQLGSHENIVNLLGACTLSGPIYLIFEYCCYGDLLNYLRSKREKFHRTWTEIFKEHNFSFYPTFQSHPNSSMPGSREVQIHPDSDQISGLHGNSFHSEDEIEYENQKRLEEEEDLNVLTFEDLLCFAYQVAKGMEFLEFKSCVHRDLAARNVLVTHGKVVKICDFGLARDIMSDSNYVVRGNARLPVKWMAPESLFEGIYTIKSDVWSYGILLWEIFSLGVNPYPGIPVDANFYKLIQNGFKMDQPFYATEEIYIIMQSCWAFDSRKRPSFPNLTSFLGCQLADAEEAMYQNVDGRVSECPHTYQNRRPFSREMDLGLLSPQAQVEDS
UniProt P06241, whole entry, looked up: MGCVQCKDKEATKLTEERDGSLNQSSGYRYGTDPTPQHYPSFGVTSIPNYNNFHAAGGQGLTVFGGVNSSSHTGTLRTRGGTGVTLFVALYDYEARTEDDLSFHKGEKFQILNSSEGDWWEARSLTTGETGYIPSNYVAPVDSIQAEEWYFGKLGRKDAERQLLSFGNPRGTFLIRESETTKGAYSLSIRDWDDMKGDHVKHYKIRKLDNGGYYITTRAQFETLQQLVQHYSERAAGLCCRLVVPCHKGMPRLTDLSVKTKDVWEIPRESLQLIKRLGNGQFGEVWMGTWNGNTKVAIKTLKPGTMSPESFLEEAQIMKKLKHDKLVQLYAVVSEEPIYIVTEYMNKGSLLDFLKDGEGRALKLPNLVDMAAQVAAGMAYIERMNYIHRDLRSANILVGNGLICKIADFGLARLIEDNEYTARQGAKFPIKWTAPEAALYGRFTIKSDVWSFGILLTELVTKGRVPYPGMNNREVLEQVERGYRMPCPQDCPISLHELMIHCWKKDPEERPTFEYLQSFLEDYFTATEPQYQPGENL
UniProt P49840: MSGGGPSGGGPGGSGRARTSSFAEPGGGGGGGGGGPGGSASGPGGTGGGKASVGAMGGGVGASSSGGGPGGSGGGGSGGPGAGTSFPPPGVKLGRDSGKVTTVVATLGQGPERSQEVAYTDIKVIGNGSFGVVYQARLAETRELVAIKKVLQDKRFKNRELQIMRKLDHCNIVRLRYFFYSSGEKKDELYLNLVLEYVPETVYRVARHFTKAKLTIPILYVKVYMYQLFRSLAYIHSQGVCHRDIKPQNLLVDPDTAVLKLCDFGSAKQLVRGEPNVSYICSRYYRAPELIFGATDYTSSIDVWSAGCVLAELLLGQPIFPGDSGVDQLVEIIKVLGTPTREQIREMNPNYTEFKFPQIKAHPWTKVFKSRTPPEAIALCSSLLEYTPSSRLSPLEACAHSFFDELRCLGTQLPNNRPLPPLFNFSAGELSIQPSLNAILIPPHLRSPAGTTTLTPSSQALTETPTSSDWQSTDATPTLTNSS
UniProt P14616: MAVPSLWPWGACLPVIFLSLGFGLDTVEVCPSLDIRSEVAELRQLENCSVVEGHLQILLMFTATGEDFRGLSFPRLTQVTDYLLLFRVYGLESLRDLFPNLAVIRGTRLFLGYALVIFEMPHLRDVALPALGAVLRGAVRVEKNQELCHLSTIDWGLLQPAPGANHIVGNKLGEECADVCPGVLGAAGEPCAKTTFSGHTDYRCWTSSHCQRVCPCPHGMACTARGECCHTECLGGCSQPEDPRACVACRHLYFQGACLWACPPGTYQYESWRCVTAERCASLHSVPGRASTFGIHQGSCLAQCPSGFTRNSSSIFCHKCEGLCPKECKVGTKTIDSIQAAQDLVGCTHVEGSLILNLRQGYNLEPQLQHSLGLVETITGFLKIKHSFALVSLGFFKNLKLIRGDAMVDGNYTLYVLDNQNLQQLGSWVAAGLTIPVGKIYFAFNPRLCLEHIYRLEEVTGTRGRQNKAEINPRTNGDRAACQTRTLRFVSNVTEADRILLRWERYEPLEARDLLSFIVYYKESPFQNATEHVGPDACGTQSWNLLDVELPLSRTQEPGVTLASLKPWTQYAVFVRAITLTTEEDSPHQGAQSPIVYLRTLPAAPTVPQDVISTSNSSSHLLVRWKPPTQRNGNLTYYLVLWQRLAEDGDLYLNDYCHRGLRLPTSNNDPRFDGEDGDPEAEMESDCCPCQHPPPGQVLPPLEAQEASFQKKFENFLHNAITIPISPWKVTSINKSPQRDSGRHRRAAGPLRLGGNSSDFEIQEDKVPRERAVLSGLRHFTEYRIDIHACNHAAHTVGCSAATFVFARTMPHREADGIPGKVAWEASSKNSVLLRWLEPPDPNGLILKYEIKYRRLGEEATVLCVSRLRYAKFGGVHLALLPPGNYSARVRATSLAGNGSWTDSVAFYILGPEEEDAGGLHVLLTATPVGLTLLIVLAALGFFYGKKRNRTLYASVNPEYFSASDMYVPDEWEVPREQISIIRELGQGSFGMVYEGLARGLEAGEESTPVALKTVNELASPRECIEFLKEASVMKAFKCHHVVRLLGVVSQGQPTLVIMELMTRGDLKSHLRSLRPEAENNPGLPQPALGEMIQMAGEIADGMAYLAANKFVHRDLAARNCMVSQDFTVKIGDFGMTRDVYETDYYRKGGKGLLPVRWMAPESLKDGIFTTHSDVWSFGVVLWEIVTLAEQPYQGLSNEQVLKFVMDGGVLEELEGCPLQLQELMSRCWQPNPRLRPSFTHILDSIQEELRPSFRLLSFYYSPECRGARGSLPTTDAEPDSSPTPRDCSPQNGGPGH
UniProt Q9Y616: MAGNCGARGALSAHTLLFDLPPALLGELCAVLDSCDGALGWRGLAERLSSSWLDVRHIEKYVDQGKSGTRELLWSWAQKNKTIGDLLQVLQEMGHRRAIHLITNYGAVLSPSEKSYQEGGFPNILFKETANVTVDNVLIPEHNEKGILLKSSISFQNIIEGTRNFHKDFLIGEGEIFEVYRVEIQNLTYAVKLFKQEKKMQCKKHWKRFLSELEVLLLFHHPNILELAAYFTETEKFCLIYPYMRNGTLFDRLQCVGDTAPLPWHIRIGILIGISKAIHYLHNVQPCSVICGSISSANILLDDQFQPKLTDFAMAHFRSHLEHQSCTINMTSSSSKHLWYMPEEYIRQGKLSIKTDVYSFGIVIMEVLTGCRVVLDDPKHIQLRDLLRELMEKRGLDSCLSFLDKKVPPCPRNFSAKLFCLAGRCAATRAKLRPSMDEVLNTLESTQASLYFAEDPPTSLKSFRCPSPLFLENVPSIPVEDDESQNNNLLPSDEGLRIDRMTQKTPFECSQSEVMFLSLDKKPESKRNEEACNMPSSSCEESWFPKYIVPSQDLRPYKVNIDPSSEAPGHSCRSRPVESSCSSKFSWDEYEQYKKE
UniProt P06239: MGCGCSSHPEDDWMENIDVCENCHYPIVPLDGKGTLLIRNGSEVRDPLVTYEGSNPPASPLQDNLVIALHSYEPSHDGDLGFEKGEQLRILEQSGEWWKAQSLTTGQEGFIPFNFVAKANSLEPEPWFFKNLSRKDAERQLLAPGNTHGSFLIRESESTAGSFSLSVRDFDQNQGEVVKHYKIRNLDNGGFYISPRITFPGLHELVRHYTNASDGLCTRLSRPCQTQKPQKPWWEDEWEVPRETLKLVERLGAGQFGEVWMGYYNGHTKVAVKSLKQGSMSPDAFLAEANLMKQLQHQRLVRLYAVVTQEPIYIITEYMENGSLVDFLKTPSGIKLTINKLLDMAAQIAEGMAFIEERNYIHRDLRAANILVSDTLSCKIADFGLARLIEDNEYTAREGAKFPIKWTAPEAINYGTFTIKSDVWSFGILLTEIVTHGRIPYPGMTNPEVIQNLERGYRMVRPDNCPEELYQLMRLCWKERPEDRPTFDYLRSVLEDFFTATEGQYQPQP
UniProt P53667: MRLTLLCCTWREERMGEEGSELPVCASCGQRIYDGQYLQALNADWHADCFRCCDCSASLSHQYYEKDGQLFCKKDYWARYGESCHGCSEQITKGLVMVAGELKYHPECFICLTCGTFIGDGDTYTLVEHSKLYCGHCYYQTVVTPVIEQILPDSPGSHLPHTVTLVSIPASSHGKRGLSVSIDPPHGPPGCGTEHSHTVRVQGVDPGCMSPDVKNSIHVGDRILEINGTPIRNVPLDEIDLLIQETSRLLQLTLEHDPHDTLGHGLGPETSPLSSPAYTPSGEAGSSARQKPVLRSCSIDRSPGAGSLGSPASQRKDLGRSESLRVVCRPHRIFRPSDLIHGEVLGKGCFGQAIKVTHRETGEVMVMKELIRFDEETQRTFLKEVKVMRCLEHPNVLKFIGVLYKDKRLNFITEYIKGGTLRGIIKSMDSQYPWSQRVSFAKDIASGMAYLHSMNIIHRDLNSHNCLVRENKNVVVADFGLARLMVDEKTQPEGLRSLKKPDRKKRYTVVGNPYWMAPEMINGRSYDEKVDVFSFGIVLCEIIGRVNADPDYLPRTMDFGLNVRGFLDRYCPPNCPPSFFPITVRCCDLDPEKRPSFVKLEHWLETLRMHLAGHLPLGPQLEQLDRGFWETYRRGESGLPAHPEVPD
UniProt P53671: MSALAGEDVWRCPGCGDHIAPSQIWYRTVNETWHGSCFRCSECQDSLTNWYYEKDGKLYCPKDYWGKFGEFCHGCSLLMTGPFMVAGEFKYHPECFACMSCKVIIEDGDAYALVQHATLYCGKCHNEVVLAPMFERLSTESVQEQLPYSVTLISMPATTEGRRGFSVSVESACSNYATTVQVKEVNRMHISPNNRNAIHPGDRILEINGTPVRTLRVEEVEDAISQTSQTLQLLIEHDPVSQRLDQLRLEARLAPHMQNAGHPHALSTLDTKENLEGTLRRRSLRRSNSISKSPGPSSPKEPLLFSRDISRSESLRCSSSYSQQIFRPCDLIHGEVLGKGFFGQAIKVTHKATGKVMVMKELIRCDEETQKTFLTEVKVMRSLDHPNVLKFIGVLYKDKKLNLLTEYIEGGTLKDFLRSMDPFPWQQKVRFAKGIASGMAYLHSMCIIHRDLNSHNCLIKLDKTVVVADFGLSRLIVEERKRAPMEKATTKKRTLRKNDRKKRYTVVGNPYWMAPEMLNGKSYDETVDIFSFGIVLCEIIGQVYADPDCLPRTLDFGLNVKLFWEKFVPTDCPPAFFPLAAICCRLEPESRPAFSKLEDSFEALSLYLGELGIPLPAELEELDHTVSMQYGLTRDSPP

Row | Structure (SMILES) | number of time points [1] | number of time points [2] | number of time points [3] | number of time points [4] | number of time points [5] | number of time points [6] | number of time points [7] | number of time points [8] | number of time points [9] | number of time points [10]
1 | C[C@@H]1CC(=O)c2c(ccc3c2C(=O)c2cccc(O)c2C3=O)C1 [Ochromycinone] (10 µM) | 0 | 0 | 0 | 0 | 0 | 0 | 0 | 0 | 0 | 0
2 | O=C1NC(=O)/C(=C/c2ccc3nccc(-c4ccncc4)c3c2)S1 (10 µM) | 0 | 0 | 0 | 0 | 0 | 0 | 0 | 0 | 0 | 0
3 | CNc1nc(Nc2cn(C(C)(C)C#N)nc2C)ncc1C(F)(F)F (10 µM) | 0 | 0 | 0 | 0 | 0 | 0 | 0 | 0 | 0 | 0
4 | O=C(Nc1cccc(Nc2ncc(Br)c(NCCc3cnc[nH]3)n2)c1)N1CCCC1 (10 µM) | 0 | 3 | 0 | 0 | 2 | 3 | 3 | 0 | 3 | 1
5 | O=C1O[C@H]([C@@H](O)CO)C(O)=C1OP(=O)(O)O [2-Phospho-L-ascorbic acid (trisodium)] (10 µM) | 0 | 0 | 0 | 0 | 0 | 0 | 0 | 0 | 0 | 0
6 | CC1(C)Cc2c(sc(NC(=S)NC(=O)c3ccccc3)c2C(=O)O)CO1 (10 µM) | 0 | 0 | 0 | 0 | 0 | 0 | 0 | 0 | 0 | 0
7 | Cc1cc(Nc2ncnc3ccc(-c4ccc(CNCCS(C)(=O)=O)o4)cc23)ccc1Oc1ccn2ncnc2c1 [ARRY-380 (analog )] (2.5 µM) | 0 | 0 | 0 | 0 | 0 | 0 | 0 | 0 | 0 | 0
8 | CN1C(=O)[C@@H](NC(=O)c2n[nH]c(Cc3ccccc3)n2)COc2ccccc21 (10 µM) | 0 | 0 | 0 | 0 | 0 | 0 | 0 | 0 | 0 | 0
9 | CC(C)CCNC(=O)c1ccc2c(c1)nc(Nc1n[nH]c3ccc(-c4ccccc4OC(F)(F)F)cc13)n2C1CCC(O)CC1 (stereo not drawn) [IRAK inhibitor 4 (trans)] (10 µM) | 0 | 0 | 0 | 0 | 0 | 0 | 0 | 0 | 0 | 0
10 | Cn1cc(-c2c[nH]c3ncnc(N4CCOCC4)c23)cc1C#N (10 µM) | 0 | 0 | 0 | 0 | 0 | 0 | 0 | 0 | 0 | 0
11 | COc1ccc2cc(-c3nc(-c4ccc([S+](C)[O-])cc4)[nH]c3-c3ccncc3)ccc2c1 (stereo not given) [Tie2 kinase inhibitor 1] (2.5 µM) | 0 | 0 | 0 | 0 | 0 | 0 | 0 | 0 | 0 | 0
12 | NC(=O)N1CCC(CC(=O)N2CCC([C@H]3c4ncc(Br)cc4CCc4cc(Cl)cc(Br)c43)CC2)CC1 [Lonafarnib] (2.5 µM) | 0 | 0 | 0 | 0 | 0 | 0 | 0 | 0 | 0 | 0
13 | N#Cc1ccnc(Nc2cc(C3CCN(C4COC4)CC3)cc(N3CCC(F)(F)C3)n2)c1 (2.5 µM) | 0 | 0 | 0 | 3 | 0 | 0 | 0 | 0 | 0 | 0
14 | N#Cc1c2nc3ccccc3nc2n2ccc(NC(=O)c3cccs3)cc12 (10 µM) | 0 | 0 | 0 | 0 | 0 | 0 | 0 | 0 | 0 | 0
15 | Cc1cccc(-c2[nH]c(C(C)(C)C)nc2-c2ccc3nccnc3c2)n1 (10 µM) | 0 | 0 | 0 | 0 | 0 | 0 | 0 | 0 | 0 | 0
16 | CNc1nc(Nc2ccc(C(=O)N3CCOCC3)cc2OC)ncc1Cl (2.5 µM) | 0 | 0 | 0 | 0 | 0 | 0 | 0 | 0 | 0 | 0

For reference, part of the list above:
Row | Structure (SMILES) | number of time points [1] | number of time points [2] | number of time points [3] | number of time points [4] | number of time points [5] | number of time points [6] | number of time points [7] | number of time points [8] | number of time points [9] | number of time points [10]
1 | C[C@@H]1CC(=O)c2c(ccc3c2C(=O)c2cccc(O)c2C3=O)C1 [Ochromycinone] (10 µM) | 0 | 0 | 0 | 0 | 0 | 0 | 0 | 0 | 0 | 0
2 | O=C1NC(=O)/C(=C/c2ccc3nccc(-c4ccncc4)c3c2)S1 (10 µM) | 0 | 0 | 0 | 0 | 0 | 0 | 0 | 0 | 0 | 0

From the supplement of paper PMC12823440, “Inhibitors supercharge kinase turnover through native proteolytic circuits” (Nature, 2025)
